# Values of other authors as cited in patent US20070004692A1, “Preparations and therapy of intrathecal inflammatory disease” (priority 2005, published 2007).
# For at least one compound, name, drawing or mass did not settle the structure.
# Tested on: stroke
# Conditions: high dose given within 48 hours after onset of stroke, patients; cited from earlier work
structure (smiles),measurement,value
"C[C@@H]1C[C@H]2[C@@H]3CCC4=CC(=O)C=C[C@]4(C)[C@@]3(F)[C@@H](O)C[C@]2(C)[C@@]1(O)C(=O)CO [Dexamethasone, dexamethasone]",overall neurological outcome or death,no significant difference
